Read-outs that look alike come from different tables or passages of the source. No constants are given. Whether binding was seen depends on the method and setting. Binding seen in cells or lysates may run through a third protein. A yes stands for co-enrichment or nearness to the bait. Other partners may have been found. Tags and fused reporters may be left off the sequences shown.
T1: FLAG-Ripply2 (mouse) (UniProt Q2WG76)
T1 sequence: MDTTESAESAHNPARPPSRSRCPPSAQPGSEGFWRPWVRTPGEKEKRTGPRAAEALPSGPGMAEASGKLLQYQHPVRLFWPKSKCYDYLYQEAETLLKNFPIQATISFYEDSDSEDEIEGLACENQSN


Key:
FLAG-Ripply2 (mouse) [1] = biological target: T1, FLAG-Ripply2 (mouse); assay: affinity purification with mass spectrometry; lysate of PSM-fated Tbx6-venus ES cells after 3 hr Dox; anti-FLAG beads overnight, at least eight washes, elution with 150 μg/mL 3xFLAG peptide, gradient gel, mass spectrometry; control cells without FLAG-Ripply2
FLAG-Ripply2 (mouse) [2] = biological target: T1, FLAG-Ripply2 (mouse); assay: as above; remark: listed apart in the source

binding (FLAG-Ripply2 (mouse) [1])	binding (FLAG-Ripply2 (mouse) [2])	Molecule
binds		TLE (mouse (endogenous in TT2 ES cells))
	binds	Tbx6-venus (protein, UniProt P70327 1-436) MYHPRELYPSLGTGYRLGHPQPGADSTFPPALTEGYRYPDLDTSKLDCFLSGIEAAPHTLAAAAPLPLLPSALGPETAPPPPEALHSLPGVSLSLENQELWKEFSAVGTEMIITKAGRRMFPACRVSVTGLDPEARYLFLLDVVPVDGARYRWQGQHWEPSGKAEPRLPDRVYIHPDSPATGAHWMRQPVSFHRVKLTNSTLDPHGHLILHSMHKYQPRIHLVRATQLCSQHWGGVASFRFPETTFISVTAYQNPRITQLKIAANPFAKGFRENGRNCKRERDARVKRKLRGPEPVATEACGSGDTPGGPCDSTLGGDIRDSDPEQAPTPQEAASASAPPCGGPSAEAYLLHPAAFHGAPSHLPARTPSFAEAPDPGRPAPYSAAFLDLQPGPGGSAYQAAPSVPSFAPHFIQGGPFPLPYPGPGGYLDMGSKPMY
